Here are results for 63 molecules from PubChem BioAssay AID493014 (National Center for Advancing Translational Sciences (NCATS), 2011).

The list shows a part of the results. These are further read-outs of the screen, such as a control signal, another cell line or another target. No call is given for them. Most of these compounds were active or inconclusive in the main read-out, so they are no random draw. Words in brackets tell the shape of the fitted curve; partial curves, single points and poor fits give uncertain potencies.

This assay in a line: qHTS Assay to Find Inhibitors of Chronic Active B-Cell Receptor Signaling. Particulars: ABC-DLBCL IkBa-CBG/CBR reporter, luminescence ratio (green luciferase fused to IkBa over red control in TMD8 lymphoma cells), 4 h. In a few lines: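 Concentration-response series (up to 46 uM) were applied to TMD8 dual-reporter cells for 4 h at 37C with doxycycline. Green/red ratio, after filter-overlap correction, defined %Activity; red signal alone was normalised to basal cells and zero luminescence.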
In general terms: In qHTS, concentration-response curves come from the screen itself.

[1] abbreviates: measured here: CBR red luminescence, cell number.
Setting [2] is: measured here: IkBa-CBG green luminescence.

Regarding `Cn1cnnc1SCC(=O)NC1CCCN(Cc2ccc(Cl)cc2)C1` (stereo unspecified), the AC50 (usually the concentration giving half of the maximal activity seen) under setting [1] was 14.1 µM [rising, single point].

With `Cc1cc(=O)n2nc(N3CCCC(C(=O)N4CCN(c5ccccc5)CC4)C3)sc2n1` (stereo unspecified), the half-maximal activity concentration (AC50) under setting [1] is 3.98 µM [rising, partial curve, poor fit].

As for `CCc1nnc(NC(=O)CSc2nnc(-c3ccncc3)n2C)s1`, the half-maximal activity concentration (AC50) under setting [1] is 29.1 µM [rising, single point].

In the case of `CN1C(=O)c2cccc(NC(=O)Cc3ccccc3)c2C1=O`, under setting [1], the half-maximal activity concentration (AC50) was 9.2 µM [falling, partial curve].

As for `CC(C)CNC(=S)NNC(=O)c1ccco1`, the AC50 was 29.1 µM [falling, single point] under setting [1] and 23.1 µM [rising, partial curve, poor fit] under setting [2].

Consider `CCC(=NC(CC)CO)C1=C(O)CC(C)(C)CC1=O` (stereo unspecified), for which the AC50 under setting [1] is 14.1 µM [rising, single point].

With `CCN(C(=S)NC(=O)CCc1ccccc1)c1ccccc1`, the AC50 under setting [1] was 9.2 µM [rising, partial curve, poor fit].

For `CC(=O)Nc1ccccc1NS(=O)(=O)c1ccc(Cl)cc1`, under setting [1], the half-maximal activity concentration (AC50) is 32.6 µM [falling, single point].

As to `COCCCNC(=O)CN(c1cc(Cl)ccc1OC)S(=O)(=O)c1ccc(C)c([N+](=O)[O-])c1`, the concentration at half-maximal activity (AC50) under setting [1] is 15.8 µM [falling, partial curve, poor fit].

Consider `CCOC(=O)c1ccc(COC(=O)CCc2nc3ccccc3[nH]c2=O)o1`, for which, under setting [1], the AC50 is 2.31 µM [falling, single point].

Consider `COc1ccccc1Oc1ccc(Oc2ccccc2OC)cc1`, for which the AC50 under setting [1] was 11.2 µM [falling, single point].

Turning to `CN(C)/C=C/C(=O)c1ccc(Br)cc1`, the AC50 under setting [1] was 35.5 µM [rising, single point].

In the case of `CCCOc1ccc(C(=O)NC(=S)Nc2nc(C)c(C(=O)N(C)C)s2)cc1`, the half-maximal activity concentration (AC50) under setting [1] is 25.9 µM [rising, partial curve, poor fit].

With `Cc1ccsc1C(=O)OCC(=O)Nc1cccc(S(=O)(=O)N2CCOCC2)c1`, the AC50 under setting [1] was 4.61 µM [falling, full curve, poor fit].

In the case of `CC1CN(CC(=O)Nc2ccc(Br)cn2)CC(C)O1` (stereo unspecified), the concentration at half-maximal activity (AC50) under setting [1] is 17.8 µM [rising, partial curve, poor fit].

On to `Cc1cc(C)c2nc(-c3ccccn3)cc(C(=O)Nc3ccc(S(=O)(=O)Nc4cc(C)on4)cc3)c2c1`, for which, under setting [1], the AC50 was 35.5 µM [falling, single point].

Regarding `CC(=O)Nc1ccc(NC(=O)C(C)Sc2n[nH]c(-c3ccc(C)cc3)n2)cc1` (stereo unspecified), under setting [1], the half-maximal activity concentration (AC50) was 32.6 µM [rising, single point].

Turning to `O=C(Nc1ccc(F)cc1F)c1ccc2c(=O)n3c(nc2c1)CCC3`, under setting [1], the AC50 was 14.6 µM [falling, partial curve].

`CCOC(=O)C1CCCN(C(=O)c2cc3c(C)nc4ccccc4c3o2)C1` (stereo unspecified): the half-maximal activity concentration (AC50) under setting [1] is 29.1 µM [falling, single point].

With `O=C(COc1ncnc2scc(-c3ccc(F)cc3)c12)NCc1ccco1`, under setting [1], the concentration at half-maximal activity (AC50) is 0.00517 µM [rising, full curve, poor fit].

Consider `CCc1ccc(OCC(=O)NC(C)(C)C)cc1`, for which the AC50 under setting [1] is 18.4 µM [rising, partial curve, poor fit].

Turning to `Cn1nc(CC(=O)NCc2cccc3ccccc23)c2ccccc2c1=O`, the AC50 under setting [1] was 0.259 µM [falling, full curve, poor fit].

Regarding `CCOc1ccc(NC(=O)CCCc2cc(-c3ccc(OCC)cc3)on2)cc1`, the half-maximal activity concentration (AC50) under setting [1] was 3.55 µM [falling, single point].

As to `COc1ccc(OC)c2c1sc(=NC(=O)c1cccc(N3C(=O)CCC3=O)c1)n2C`, under setting [1], the AC50 is 3.66 µM [rising, partial curve, poor fit].

For `CC1=CC(C)(C)n2c(O)c(N=N)c3c(C)ccc1c32`, under setting [1], the AC50 is 14.1 µM [rising, single point].

For the molecule `Cc1ccc2cc(C=O)c(N(C)C)nc2c1`, the AC50 under setting [1] was 0.259 µM [rising, partial curve, poor fit].

As to `CC/C(=N\NC(=O)c1cccnc1)c1ccc2c(c1)OCCO2`, the AC50 under setting [1] is 17.8 µM [falling, partial curve, poor fit].

Take `Cc1csc(NC(=O)c2cc3c(s2)-c2ccccc2OC3)n1`: the concentration at half-maximal activity (AC50) under setting [1] is 0.92 µM [falling, full curve].

With `C=CCOc1c(Br)cc(/C=N/NC(N)=O)cc1OC`, the concentration at half-maximal activity (AC50) under setting [2] was 23.1 µM [falling, single point].

In the case of `COc1ccc(-c2nc(N)n(C(=O)c3cccs3)n2)cc1`, the AC50 under setting [1] was 10 µM [falling, partial curve, poor fit] and the half-maximal activity concentration (AC50) under setting [2] was 4.47 µM [rising, full curve, poor fit].

`Cc1cc(C)n2c(SCc3cccs3)nnc2n1`: the half-maximal activity concentration (AC50) under setting [1] was 1.46 µM [rising, full curve].

For `COc1ccc(CCn2c(-c3ccco3)nc3nc4ccccc4nc32)cc1`, the concentration at half-maximal activity (AC50) under setting [1] is 6.51 µM [rising, partial curve, poor fit].

Regarding `O=C(CN1CCN(S(=O)(=O)c2ccc(Br)cc2)CC1)Nc1ccc2c(c1)OCO2`, the half-maximal activity concentration (AC50) under setting [1] is 25.1 µM [falling, single point].

Regarding `COc1cc(C2C(C#N)=C(N)N(c3ccc(F)cc3)C3=C2S(=O)(=O)CC3)ccc1O` (stereo unspecified), the AC50 under setting [1] is 35.5 µM [falling, single point].

On to `O=C(NNC1CC(=O)N(c2ccc(Br)cc2)C1=O)c1ccccn1` (stereo unspecified), for which the AC50 under setting [1] was 35.5 µM [falling, single point].

For the molecule `Cc1cc(N2C(=O)[C@@H]3[C@H](C2=O)[C@@H]2C[C@H]3C(Br)C2Br)no1` (stereo partly specified), the AC50 under setting [1] was 11.2 µM [falling, partial curve, poor fit].

Regarding `COc1ccc(-c2nn3c(-c4ccccc4)nnc3s2)cc1OC`, under setting [1], the half-maximal activity concentration (AC50) is 3.98 µM [rising, full curve].

Regarding `Cc1cccc2nc(CSCc3ccco3)cn12`, the concentration at half-maximal activity (AC50) under setting [1] was 11.2 µM [rising, partial curve, poor fit].

Consider `C/C(Cn1cnc([N+](=O)[O-])n1)=N\NC(=O)c1ccccc1`, for which, under setting [1], the AC50 was 11.6 µM [falling, partial curve].

With `Cc1ccc(NC(=O)CN2C(=O)S/C(=C/c3ccc(-c4cccc(C(=O)O)c4)o3)C2=O)cc1`, under setting [1], the concentration at half-maximal activity (AC50) is 10 µM [falling, partial curve].

Turning to `Cn1cc(S(=O)(=O)CC(=O)Nc2ccc3c(c2)OCO3)c2ccccc21`, the AC50 under setting [1] was 32.6 µM [falling, single point].

`CCN1CCN(Cc2ccc(NC(=O)c3ccc(C)c(NC(=O)c4c[nH]c5cc(C(F)(F)F)ccc5c4=O)c3)cc2C(F)(F)F)CC1`: under setting [1], the half-maximal activity concentration (AC50) is 0.794 µM [falling, full curve, poor fit].

Consider `CCN1CCN(c2nc(-c3cccs3)nc3ccccc23)CC1`, for which the AC50 under setting [1] was 25.9 µM [falling, single point].

Regarding `CCOC(=O)N1CCC(=NNC(=O)c2ccccc2F)CC1`, under setting [1], the AC50 was 8.2 µM [falling, partial curve].

In the case of `Cc1ccc(SCC(=O)O/N=C(\N)c2ccncc2)cc1`, under setting [1], the AC50 was 2.51 µM [rising, full curve, poor fit].

Consider `COc1ccc(S(=O)(=O)NCCc2csc3nc(-c4ccccc4)nn23)cc1OC`, for which the AC50 under setting [2] is 11.2 µM [rising, partial curve, poor fit].

On to `O=C(Nc1cccc(-c2cn3cccnc3n2)c1)c1ccc2c(c1)OCO2`, for which, under setting [1], the AC50 was 15.8 µM [falling, partial curve].

In the case of `COc1ccc(C2=NN(C(C)=O)C(c3cccs3)C2)cc1OC` (stereo unspecified), the AC50 under setting [2] was 11.2 µM [falling, partial curve].

For the molecule `CCOC(=O)c1ccc(-c2c(-c3ccccc3OC)oc3ccccc23)cc1F`, the concentration at half-maximal activity (AC50) under setting [1] was 7.31 µM [rising, single point].

On to `COc1cccc(Cl)c1NC(=O)N1CCN(c2ccnc3cc(Cl)ccc23)CC1`, for which the half-maximal activity concentration (AC50) under setting [1] was 15.8 µM [falling, single point].

As for `COC(=O)c1cc(-c2c(-c3cc(OC)c(OC)c(OC)c3)noc2C)cc([N+](=O)[O-])c1`, the half-maximal activity concentration (AC50) under setting [1] is 10 µM [falling, single point].

As to `CCc1ccc(-c2nc(NC(=O)c3ccc(OCC(=O)Nc4ccc(F)cc4)c(OC)c3)sc2C)cc1`, the half-maximal activity concentration (AC50) under setting [1] is 16.4 µM [rising, partial curve, poor fit].

`CCC(CO)NCC(O)COCc1ccc2c(c1)OCO2` (stereo unspecified): under setting [1], the half-maximal activity concentration (AC50) was 0.316 µM [rising, full curve, poor fit].

With `COc1cc(/C(C)=N/N2CCN(c3ccccc3OC)CC2)ccc1O`, the half-maximal activity concentration (AC50) under setting [1] was 6.31 µM [rising, full curve, poor fit].

On to `Cc1ccc2c(CC(=O)OC3CCOC3=O)coc2c1` (stereo unspecified), for which, under setting [1], the AC50 was 12.6 µM [falling, partial curve, poor fit].

With `Cc1cc(C)n(-c2c(F)c(F)c(CN3CCCCC3)c(F)c2F)n1`, under setting [1], the concentration at half-maximal activity (AC50) was 6.51 µM [falling, single point].

Regarding `CCCCN(CC)CCCNC(=O)CS(=O)(=O)Cc1nc(-c2cccc(OC)c2)oc1C`, the AC50 under setting [1] was 20.6 µM [falling, partial curve, poor fit].

Turning to `CCOc1cccc(C(=O)Nc2ccc3c(c2)OCCO3)c1`, the AC50 under setting [1] was 2.82 µM [falling, partial curve, poor fit].

With `C/C(=N/NC(=O)c1cccc(Br)c1)C1CC2CCC1C2` (stereo unspecified), the half-maximal activity concentration (AC50) under setting [1] was 14.1 µM [falling, partial curve, poor fit].

With `COc1ccc(Cl)cc1N1C(=O)C2CCCN2C1c1ccccc1F` (stereo unspecified), the AC50 under setting [1] is 7.31 µM [falling, partial curve, poor fit].

In the case of `Cc1c(C(=O)N(Cc2ccccc2)C2CCS(=O)(=O)C2)oc2ccccc12` (stereo unspecified), the half-maximal activity concentration (AC50) under setting [1] is 20 µM [falling, single point].

On to `Cc1cc(C)c(S(=O)(=O)N2CCCOC2CNC(=O)C(=O)NCc2cccnc2)c(C)c1` (stereo unspecified), for which the half-maximal activity concentration (AC50) under setting [1] was 10 µM [rising, partial curve, poor fit].

Regarding `O=C(Nc1nc2ccccc2[nH]1)c1ccccc1O`, the AC50 runs as follows: under setting [1], 0.355 µM [falling, full curve]; under setting [2], 3.98 µM [rising, single point].
